Data reported in patent publication US7718768B2, “Biologically active peptide [sequence]” (CMS Peptides Patent Holding Company Limited, priority 2001, dated 2010).
At least one peptide structure holds a part that was inferred or is arguable (an end, a ring closure or a residue). Marks after values point to notes of the source that are not given here. Residues, ends and D or L forms follow the SMILES beside them.

Legend:
[1] = tested on: Masugi nephritis rat model; experiment: Masugi nephritis rat model; format: in vivo, Sprague Dawley (SD) rats; conditions: peptides 50 μg/kg/day i.p. 3 weeks; 6 heaviest kidneys per group
Source text: The anti-serum was then exuded and isolated. Whole blood was collected from 15 healthy SD rats. […] Treatment started on the day of induction. […] Adequate drinking water was supplied.

anti-SRBC antibody = experiment: Sheep Red Blood Cell (SRBC) hemolysis test, anti-SRBC antibody formation; format: in vivo, BALB/c mice; conditions: peptide 5 μg/kg/day i.p. 15 days, SRBC on day 12; IFN-γ and IL-2 groups 3×10^5 IU/kg/day; X ± SD
Method: Sheep red blood cells (SRBC) were prepared by collecting blood from cervical vein and put into a sterile flask with glass beads. The flask was shaken for 3 minutes and the blood then mixed with Alsever solution (glucose 2.05 g, NaCl 0.4 g, […] 0.8 g, adjust to 100 ml with distilled water) and stored at 4° C. Immediately before use, samples were centrifuged at 130 g, 5 minutes to collect the SRBC. The cells were washed two times by re-suspension and centrifugation in normal saline. Then the cell pellet was collected by centrifugation at 180 g for 10 minutes and re-suspended in saline to make the final working SRBC suspension, 2% (v/v).
Complement was prepared by adding 10 volumes of fresh Cavy serum into one volume centrifuge packed SRBC, and then gently shaking for 30 minutes at 4° C. The SRBC was removed by centrifugation at 200 g for 10 minutes. 10 volumes of normal saline were added to obtain the working complement solution.
The test substances were administered as described in section 1.1, plus intraperitoneal injection 0.2 ml SRBC per mouse on day 12. On the day after the last test substance administration (day 16), blood was collected from the eye canthus and left at room temperature for one hour for serum exudation. After centrifugation at 200 g for 10 minutes, the serum was diluted by 500 times with normal saline. […]

Row | SMILES | renal pathological microscopic examination [1] | anti-SRBC antibody formation (sample serum index) (anti-SRBC antibody)
1 | CC(C)[C@H](NC(=O)[C@H](CO)NC(=O)[C@@H]1CCCN1C(=O)[C@H](CC(N)=O)NC(=O)[C@H](Cc1ccccc1)NC(=O)[C@H](CC(=O)O)NC(=O)[C@H](CC(=O)O)NC(=O)[C@@H]1CCCN1C(=O)[C@H](Cc1c[nH]cn1)NC(=O)[C@H](Cc1c[nH]cn1)NC(=O)[C@H](C)NC(=O)[C@H](C)N)C(=O)O [CMS014] (H-AAHHPDDFNPSV-OH; N-terminus and C-terminus assumed) | only one rat showed signs of fibrous tissue formation in the glomerular capsule and hyperplasia of the glomerular epithelium | 
2 | CSCC[C@H](NC(=O)[C@H](CCC(=O)O)NC(=O)[C@H](CCC(=O)O)NC(=O)[C@@H](N)Cc1ccccc1)C(=O)O [CMS030, Phe Glu Glu Met] (H-FEEM-OH; N-terminus and C-terminus assumed) | all pathological parameters of all rats were normal | 158 ± 37*^@^ Unit
3 | NC(=O)CC[C@H](NC(=O)[C@@H](N)Cc1ccccc1)C(=O)N1CCC[C@H]1C(=O)N[C@@H](CO)C(=O)N[C@@H](Cc1ccccc1)C(=O)O [CMS036, Phe Gln Pro Ser Phe] (H-FQPSF-OH; N-terminus and C-terminus assumed) | all pathological parameters of all rats were normal | 
